From patent US20190010458

Molecular target: T1, Etv2 (Mus musculus) (UniProt P41163)
T1 sequence (limits assumed): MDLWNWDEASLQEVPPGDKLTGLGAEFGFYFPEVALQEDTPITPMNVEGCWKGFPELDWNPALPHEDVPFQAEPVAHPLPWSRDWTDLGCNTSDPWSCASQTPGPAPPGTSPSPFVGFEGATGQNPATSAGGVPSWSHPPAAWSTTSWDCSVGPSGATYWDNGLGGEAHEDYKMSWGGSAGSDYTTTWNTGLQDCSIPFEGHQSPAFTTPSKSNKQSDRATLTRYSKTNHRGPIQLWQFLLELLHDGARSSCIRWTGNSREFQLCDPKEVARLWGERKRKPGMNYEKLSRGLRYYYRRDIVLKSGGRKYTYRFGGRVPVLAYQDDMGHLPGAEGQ
Test: EMSA
Details: gel shift confirmed binding to oligo with Etv2 motif

GAATATAGGCAGGAAATTGACCAGAT (double strand) [miR-130a promoter Etv2 site oligo]
binding result: binds

For at least one entry, the source does not settle the construct or the ends of the probe. Tags and fusion partners may be left off the protein sequences shown.
